Assay results: article PMC2954905, “Controlling Cellular P-TEFb Activity by the HIV-1 Transcriptional Transactivator Tat”
Results are given in words; binding and its absence hold for the method and conditions named. In cells and extracts the contact can be indirect. Some binding calls cover weakened binding; strength is not graded here.

Amino acid sequences for entries named in this document (tags omitted).
UniProt O60563: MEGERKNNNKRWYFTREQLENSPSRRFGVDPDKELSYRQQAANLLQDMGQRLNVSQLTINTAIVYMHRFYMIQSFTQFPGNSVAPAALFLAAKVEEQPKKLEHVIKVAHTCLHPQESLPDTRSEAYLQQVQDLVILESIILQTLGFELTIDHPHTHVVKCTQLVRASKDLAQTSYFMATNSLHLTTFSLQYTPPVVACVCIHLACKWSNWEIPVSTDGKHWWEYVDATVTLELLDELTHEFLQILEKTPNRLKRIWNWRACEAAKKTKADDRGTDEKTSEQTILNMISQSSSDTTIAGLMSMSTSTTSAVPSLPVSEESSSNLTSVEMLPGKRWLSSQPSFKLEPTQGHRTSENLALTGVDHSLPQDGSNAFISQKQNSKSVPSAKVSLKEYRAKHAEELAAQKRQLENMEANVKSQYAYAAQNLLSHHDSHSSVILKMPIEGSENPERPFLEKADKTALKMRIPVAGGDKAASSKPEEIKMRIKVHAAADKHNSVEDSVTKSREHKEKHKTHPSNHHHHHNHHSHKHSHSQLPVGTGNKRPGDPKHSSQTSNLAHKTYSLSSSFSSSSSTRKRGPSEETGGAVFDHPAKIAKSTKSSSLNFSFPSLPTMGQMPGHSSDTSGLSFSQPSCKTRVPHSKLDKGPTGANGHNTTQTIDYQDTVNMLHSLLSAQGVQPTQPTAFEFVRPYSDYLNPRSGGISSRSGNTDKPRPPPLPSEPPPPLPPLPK
UniProt O94992: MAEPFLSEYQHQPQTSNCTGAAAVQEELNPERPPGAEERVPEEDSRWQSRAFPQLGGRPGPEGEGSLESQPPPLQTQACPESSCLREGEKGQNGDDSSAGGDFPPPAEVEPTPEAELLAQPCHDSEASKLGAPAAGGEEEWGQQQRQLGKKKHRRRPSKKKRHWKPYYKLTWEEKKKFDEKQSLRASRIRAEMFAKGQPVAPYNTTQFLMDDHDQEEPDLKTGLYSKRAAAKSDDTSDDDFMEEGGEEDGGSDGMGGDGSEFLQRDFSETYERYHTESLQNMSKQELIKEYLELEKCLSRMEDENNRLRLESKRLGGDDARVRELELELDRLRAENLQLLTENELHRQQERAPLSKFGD

Target: HA-tagged cyclin T1 (HA-CycT1) (UniProt O60563)
Experiment: co-IP; HA-CycT1 immunoprecipitated from extracts of HeLa G3H cells transiently expressing wild-type or mutant (C22G, K41A) Tat-FL; co-precipitation of endogenous HEXIM1 and Tat-FL proteins monitored

binding: binds
Substance: HEXIM1, endogenous (from UniProt O94992 1-359)
